From paper PMC9399289
For some of these results: A negative result means that nothing was seen under these conditions. For some of these results: At least one verdict was read from the data and is not stated in words by the source. For some of these results: Protein sequences can lack the tags named with them. For some of these results: A weaker result is weaker than the reference pair of the same experiment. For some of these results: The exact form of at least one protein or probe is not confirmed.

Assays:
[1] = target: T1, GST-SDE2-FLAG ΔSAP del395-427 (human) (UniProt Q6IQ49); test: EMSA; conditions: EMSA: 10 mM Tris-HCl pH 7.5, 50 mM NaCl, 0.5 mM DTT, 0.05 mM EDTA, 3% glycerol, 0.05 mg/ml BSA (or 50 mM Na/K PO4 pH 6.0, 50 mM NaCl, 5 mM DTT), on ice, recombinant protein, residues 1-451, protein details: N-term GST, C-term FLAG
T1 sequence (looked up): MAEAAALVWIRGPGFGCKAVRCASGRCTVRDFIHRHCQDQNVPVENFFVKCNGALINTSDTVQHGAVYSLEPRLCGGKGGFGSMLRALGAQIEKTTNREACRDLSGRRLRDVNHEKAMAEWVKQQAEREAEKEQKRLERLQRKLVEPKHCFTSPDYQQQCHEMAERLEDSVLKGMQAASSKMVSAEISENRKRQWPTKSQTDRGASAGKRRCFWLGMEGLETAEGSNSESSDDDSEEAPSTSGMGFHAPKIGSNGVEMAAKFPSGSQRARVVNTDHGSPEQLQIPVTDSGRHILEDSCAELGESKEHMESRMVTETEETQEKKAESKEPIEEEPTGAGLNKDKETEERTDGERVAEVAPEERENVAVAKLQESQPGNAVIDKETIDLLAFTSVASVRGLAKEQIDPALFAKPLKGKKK

GST-SDE2SAP (human) [2] = target: GST-SDE2SAP (human) (UniProt Q6IQ49); test: EMSA; conditions: free-probe loss; EMSA: 10 mM Tris-HCl pH 7.5, 50 mM NaCl, 0.5 mM DTT, 0.05 mM EDTA, 3% glycerol, 0.05 mg/ml BSA (or 50 mM Na/K PO4 pH 6.0, 50 mM NaCl, 5 mM DTT), on ice; recombinant protein; residues 350-451; protein details: N-term GST; label: 5' 6-FAM on strand 1
GST-SDE2SAP (human) [3] = target: GST-SDE2SAP (human) (UniProt Q6IQ49); test: fluorescence anisotropy; conditions: barely above background, no plateau, Kd not calculated; anisotropy: 50 mM Na/K PO4 pH 6.0, 50 mM NaCl, 5 mM DTT, 1 uM DNA; recombinant protein; residues …; protein details: N-term GST; label: 5' 6-FAM on strand 1
GST-SDE2-FLAG WT (human) = GST-SDE2-FLAG WT (human) (UniProt Q6IQ49); test: EMSA; conditions: EMSA: 10 mM Tris-HCl pH 7.5, 50 mM NaCl, 0.5 mM DTT, 0.05 mM EDTA, 3% glycerol, 0.05 mg/ml BSA (or 50 mM Na/K PO4 pH 6.0, 50 mM NaCl, 5 mM DTT), on ice; recombinant protein; residues 1-451; protein details: N-term GST, C-term FLAG; label: 5' 6-FAM on strand 1
[4] = target: GST-SDE2 KK K444A,K447A (human) (UniProt Q6IQ49); test: EMSA; conditions: 50-200 nM protein, 20 nM DNA; EMSA: 10 mM Tris-HCl pH 7.5, 50 mM NaCl, 0.5 mM DTT, 0.05 mM EDTA, 3% glycerol, 0.05 mg/ml BSA (or 50 mM Na/K PO4 pH 6.0, 50 mM NaCl, 5 mM DTT), on ice; recombinant protein; residues 1-451; protein details: N-term GST; label: 5' 6-FAM; single-stranded DNA
[5] = target: T2, GST-SDE2 ΔCTT del428-451 (human) (UniProt Q6IQ49); test: EMSA; conditions: 50-200 nM protein, 25 nM DNA; EMSA: 10 mM Tris-HCl pH 7.5, 50 mM NaCl, 0.5 mM DTT, 0.05 mM EDTA, 3% glycerol, 0.05 mg/ml BSA (or 50 mM Na/K PO4 pH 6.0, 50 mM NaCl, 5 mM DTT), on ice; recombinant protein; residues 1-427; protein details: N-term GST; label: 5' 6-FAM; single-stranded DNA
T2 sequence (looked up): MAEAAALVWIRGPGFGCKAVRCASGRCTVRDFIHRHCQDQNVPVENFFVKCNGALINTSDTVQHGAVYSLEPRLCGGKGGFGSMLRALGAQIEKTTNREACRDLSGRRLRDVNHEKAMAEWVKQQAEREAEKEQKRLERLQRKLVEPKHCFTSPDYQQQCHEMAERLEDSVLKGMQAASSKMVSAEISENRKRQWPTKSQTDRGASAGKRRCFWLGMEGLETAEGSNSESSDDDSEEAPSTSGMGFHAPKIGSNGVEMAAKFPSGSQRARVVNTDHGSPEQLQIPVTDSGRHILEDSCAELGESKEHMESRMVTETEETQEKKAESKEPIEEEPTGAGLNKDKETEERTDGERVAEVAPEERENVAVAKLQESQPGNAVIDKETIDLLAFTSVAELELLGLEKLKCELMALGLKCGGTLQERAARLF

[6] = tested on: iron-responsive protein (IRP); test: EMSA; conditions: EMSA: 10 mM Tris-HCl pH 7.5, 50 mM NaCl, 0.5 mM DTT, 0.05 mM EDTA, 3% glycerol, 0.05 mg/ml BSA (or 50 mM Na/K PO4 pH 6.0, 50 mM NaCl, 5 mM DTT), on ice, commercial protein
[7] = 200 nM protein, 50 nM DNA, label: 5' 6-FAM on strand 1

“GACGCTGCCGAATTCTACCAGTGCCTTGCTAGGACATCTTTGCCCACCTGCAGGTTCACCC (double strand) [60-mer dsDNA (EMSA1/EMSA2)]”: no binding [1, 7]; binds more weakly (GST-SDE2SAP (human) [2]); binds more weakly (GST-SDE2SAP (human) [3]).
“GACGCTGCCGAATTCTACCAGTGCCTTGCTAGGACATCTTTGCCCACCTGCAGGTTCACCC / ATCGATAGTCGGATCCTCTAGACAGCTCCATGTAGCAAGGCACTGGTAGAATTCGGCAGCGT [splayed-arm DNA (EMSA1/EMSA5)]”: binds (GST-SDE2-FLAG WT (human)); no binding [1, 7].
“GACGCTGCCGAATTCTACCAGTGCCTTGCTAGGACATCTTTGCCCACCTGCAGGTTCACCC [60-mer ssDNA (EMSA1)]”: binds more weakly [4]; binds more weakly [5]; binds more weakly ([1]; 50-200 nM protein, 25 nM DNA, abrogation complete only when CTT is also deleted, label: 5' 6-FAM, single-stranded DNA). “GACGCTGCCGAATTCTACCAGTGCCTTGCTAGGACATCTTTGCCCACCTGCAGGTTCACCC [60-mer ssDNA (EMSA1)]”: no binding ([6]; label: 5' 6-FAM, single-stranded DNA).
UCCUGCUUCAACAGUGCUUGGACGGAAC [IRE RNA]: binds ([6]; competed by 1 uM unlabeled IRE RNA, label: 3' biotin).
